Experimental data taken from paper PMC12313019, “Fibrotic lung ECM upregulates SDC4/integrin-αvβ1 interaction and the interfering peptide SDC4_87-131 and its derivative peptides alleviate pulmonary fibrosis” (Regenerative Biomaterials, 2025).
These are yes or no findings as the source states them, for the method shown. Binding seen in cells or lysates may run through a third protein. Some binding calls cover weakened binding; strength is not graded here.

Tests used:
[1] = molecular target: T1, syndecan-4 (SDC4) (mouse (endogenous in NIH3T3 and C57BL/6J lung)) (UniProt O35988); test: proximity ligation; Duolink PLA on NIH3T3 cells cultured on dECM-Nor or dECM-PF; antibodies against the extracellular domain of SDC4 (5G9), integrin-αv and integrin-β1; with Anti-SDC4_((93-121)) 500 ng/mL or SDC4_(87-131) 100 nM
T1 sequence: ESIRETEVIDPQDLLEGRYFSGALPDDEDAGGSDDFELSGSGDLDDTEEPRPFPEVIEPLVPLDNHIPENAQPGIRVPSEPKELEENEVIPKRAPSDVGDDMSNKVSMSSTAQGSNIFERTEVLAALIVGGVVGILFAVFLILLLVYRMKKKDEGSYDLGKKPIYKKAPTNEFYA

[2] = molecular target: T1, syndecan-4 (SDC4) (mouse (endogenous in NIH3T3 and C57BL/6J lung)); test: proximity ligation; Duolink PLA on mouse lung tissue slices 21 days after BLM; antibodies against the extracellular domain of SDC4 (5G9) and integrin-αv; groups with SDC4 knockdown, SDC4_(87-131), C8 or Anti-SDC4_((93-121)) treatment

B1: integrin-αv (receptor, UniProt P43406 31-1044)
chain: FNLDVESPAEYAGPEGSYFGFAVDFFEPSTSSRMFLLVGAPKANTTQPGIVEGGQVLKCECSSSRRCQPIEFDSTGNRDYAKDDPLEFKSHQWFGASVRSKQDKILACAPLYHWRTEMKQEREPVGTCFLQDGTKTVEYAPCRSKNIDADGQGFCQGGFSIDFTKADRVLLGGPGSFYWQGQLISDQVAEIISKYDPNVYSIKYNNQLATRTAQAIFDDSYLGYSVAVGDFNGDGIEDFVSGVPRAARTLGMVYIYDGKNMSSLHNFTGEQMAAYFGFSVAATDINGDDYADVFIGAPLFMDRGSDGKLQEVGQVSVSLQRAVGDFQTTKLNGFEVFARFGSAIAPLGDLDQDGFNDIAIAAPYGGEDKKGLVYIFNGRSTGLNSVPSQILEGQWAAQSMPPSFGYSMKGATDVDRNGYPDLVVGAFGVDRAVLYRARPVVTVNAGLEVYPSILNQDNKICPLPGTALKVSCFNVRFCLKADGKGTLPRKLHFQVELLLDKLKQKGAIRRALFLHNRSPVHSKTMTVFRGGQMQCEELVAYLRDESEFRDKLTPITIFMEYRLDQRTAADATGLQPILNQFTPANVSRQAHILLDCGEDNVCKPKLEVSVNSDQKKIYIGDDNPLTLTVKAQNQGEGAYEAELIVSIPPQADFIGVVRNNEALARLSCAFKTENQTRQVVCDLGNPMKAGTQLLAGLRFSVHQQSEMDTSVKFDLKIQSSNSFDNVSPVVSYKVDLAVLAAVEIRGVSSPDHIFLPIPNWEYKENPETEEDVGPIVQHIYELRNNGPSSFSKAILNLQWPYKYNNNTLLYILHYDIDGPMNCTADTEINPLRIKTPEKNDTAAAGQGERNHLITKRDLTLREGDVHTLGCGIAKCLQITCQVGRLDRGKSAILYVKSLLWTETFMNKENQNHSYSLKSSASFNIIEFPYKNLPIEDLFNSTLVTTNITWGIQPAPMPVPVWVIILAVLAGLLLLAVLVFVMYRMGFFKRVRPPQEEQEREQLQPHENGEGNSET
binding [1]: binds
binding [2]: binds
